In paper PMC9881158, “The DEAD-box protein Dbp6 is an ATPase and RNA annealase interacting with the peptidyl transferase center (PTC) of the ribosome” (Nucleic Acids Research, 2023):

How the values were obtained:
Assay in all cases: EMSA
Settings in all cases: 5 mM ATP, binding unchanged; EMSA: 1 nM 32P-RNA, RNasin, 15 min at 30 C, native PAGE in TBE; recombinant protein; protein details: N-terminal His6; label: 32P on ss38-mer
[1] = target: T1, Dbp6 M-I K240A (Saccharomyces cerevisiae) (UniProt P53734)
T1 sequence (looked up, limits assumed): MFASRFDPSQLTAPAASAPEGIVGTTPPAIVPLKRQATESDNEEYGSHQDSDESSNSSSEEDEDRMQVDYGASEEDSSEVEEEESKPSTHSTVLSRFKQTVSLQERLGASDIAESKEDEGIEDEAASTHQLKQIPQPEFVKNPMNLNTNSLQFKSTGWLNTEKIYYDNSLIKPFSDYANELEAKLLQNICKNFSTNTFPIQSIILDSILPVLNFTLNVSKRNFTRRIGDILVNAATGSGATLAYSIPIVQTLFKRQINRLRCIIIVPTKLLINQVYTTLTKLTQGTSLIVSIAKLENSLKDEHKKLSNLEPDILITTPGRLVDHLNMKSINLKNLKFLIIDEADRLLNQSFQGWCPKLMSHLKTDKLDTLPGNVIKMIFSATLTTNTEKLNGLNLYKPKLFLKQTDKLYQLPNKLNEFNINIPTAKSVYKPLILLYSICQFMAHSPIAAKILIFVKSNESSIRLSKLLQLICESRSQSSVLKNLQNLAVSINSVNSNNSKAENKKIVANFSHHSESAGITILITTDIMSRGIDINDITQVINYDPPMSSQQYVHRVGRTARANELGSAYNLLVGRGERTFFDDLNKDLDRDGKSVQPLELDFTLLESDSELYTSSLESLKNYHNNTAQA

[2] = target: T2, Dbp6 M-II E342A (Saccharomyces cerevisiae) (UniProt P53734)
T2 sequence (looked up, limits assumed): T1 sequence (looked up, limits assumed) with A240K, E342A

[3] = target: T3, Dbp6 ΔN del24-128 (Saccharomyces cerevisiae) (UniProt P53734)
T3 sequence (looked up, limits assumed): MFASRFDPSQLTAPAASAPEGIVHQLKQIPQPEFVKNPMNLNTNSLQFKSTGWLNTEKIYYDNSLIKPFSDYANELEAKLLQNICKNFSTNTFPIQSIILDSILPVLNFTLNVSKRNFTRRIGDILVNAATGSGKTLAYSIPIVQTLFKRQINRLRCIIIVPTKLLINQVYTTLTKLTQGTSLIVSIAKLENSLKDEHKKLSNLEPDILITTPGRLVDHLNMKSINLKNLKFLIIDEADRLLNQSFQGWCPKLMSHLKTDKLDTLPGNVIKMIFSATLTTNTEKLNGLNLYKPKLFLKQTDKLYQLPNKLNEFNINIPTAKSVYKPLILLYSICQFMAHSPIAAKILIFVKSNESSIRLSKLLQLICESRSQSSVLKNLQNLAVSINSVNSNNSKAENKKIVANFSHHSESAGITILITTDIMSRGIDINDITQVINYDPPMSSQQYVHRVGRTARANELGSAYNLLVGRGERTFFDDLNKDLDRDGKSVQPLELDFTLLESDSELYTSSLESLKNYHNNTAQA

Measured: binding result

GGGAGACCGGAAUUCAUCAUUUCAGUGUAGCGGUUCUGACGUGCAAAUCGAUCGUCGA / CAGAACCGCUACACUGAAAUGAUCAAUUCCGGUCUCCC [ds38/58 hemi-duplex]
binds: all assays above

Positions count from the first letter of the chain named. Construct, isoform or probe ends are uncertain for at least one entry. At least one verdict rests on a figure or table, not on a statement of the authors. Where a protein sequence is shown, tags need not be part of it.
